According to PubChem BioAssay AID504467 (National Center for Advancing Translational Sciences (NCATS), 2011):
Hit rate of the full screen: of about 330,000 compounds, about 7,700 (2.3%) were called active. The shares of active, inactive and inconclusive entries below differ from those in the screen. The call rests on the fitted dose curve; in most records, active means well fitted inhibition curve with a large enough effect; inconclusive means small, poorly fitted or top-dose-only effect, or effect the other way; inactive means flat fitted curve, though single readings scatter. Potencies beside an inconclusive call are fits to weak or partial responses and may not hold up.

Assay: qHTS screen for small molecules that inhibit ELG1-dependent DNA repair in human embryonic kidney (HEK293T) cells expressing luciferase-tagged ELG1; further: nearly all actives have a fitted effect of over 55% in size
Settings: HEK293T ELG1-luciferase reporter, luminescence, 16 h, DNA damage induced by 5-fluorouridine; activity change, negative = inhibition: at 46.1 µM (top of the series)
Summary of the method: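 HEK293T cells expressing luciferase-tagged ELG1 (2,000/well) received 5-Fluorouridine plus compound or DMSO for 16 hr at 37 °C. Luciferase was read by ONE-Glo luminescence after 30 min at room temperature.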
On the % scale 0 is the no-effect control and ±100 the full control effect; potency means the concentration at half of the fitted maximal effect.

SMILES	Potency	activity change, negative = inhibition
O=C(Nc1ccc(F)cc1)c1oc2ccccc2c1NC(=O)C1CC1	inconclusive: 2.31 µM [inhibitor, partial curve]	
Nc1ccccc1C(=O)N/N=C1\C2CN3CCN(C2)CC1(c1ccccc1)C3	inconclusive: 29.1 µM [activator, single point]	
FCCCOc1ccc(/C=N/OCc2c(Cl)cccc2Cl)cc1	inconclusive: 20.6 µM [activator, single point]	
COc1ccc(CCNC(=O)c2cc(-c3ccncc3)nc3ccc(S(=O)(=O)N4CCOCC4)cc23)cc1OC	inconclusive: 20.6 µM [inhibitor, single point]	
COc1ccccc1NC(=O)C(=O)NCCC1CCCCN1S(=O)(=O)c1ccccc1 (centres undefined)	inconclusive: 16.4 µM [inhibitor, single point]	
CCOC(=O)c1c(NC(=O)CN2CCN(C(=O)c3ccco3)CC2)sc2c1CCCC2	active: 20.6 µM	
CCOC(=O)c1c(NC(=O)CSc2nnnn2-c2ccc(OC)cc2)sc(C)c1C	inconclusive: 18.4 µM [inhibitor, partial curve, poor fit]	
CC1CC(C)CN(C(=O)c2ccc3c(c2NCCO)C(=O)c2ccccc2C3=O)C1 (centres undefined)	inconclusive: 20.6 µM [inhibitor, partial curve, poor fit]	
Cc1nn(Cc2ccccc2)c2sc(C(=O)NCc3cccnc3)cc12	inconclusive: 29.1 µM [inhibitor, single point]	
N#C/C(=C/c1cccc(O)c1)C(=O)NCc1ccc(Cl)cc1	inconclusive: 23.1 µM [activator, partial curve, poor fit]	
Cc1cc(-c2ccc(C)c(S(=O)(=O)NCCC(C)N3CCCCCC3)c2)on1 (centres undefined)		inactive: 10.7%
O=C(COC(=O)c1cc([N+](=O)[O-])ccc1N1CCOCC1)c1ccc(Br)cc1		inactive: -13.8%
CCC(C)Sc1cc(C)c(C#N)c2nc3ccccc3n12 (centres undefined)	inconclusive: 0.0052 µM [inhibitor, full curve, poor fit]	
Cc1cccc(NC(=O)CSc2nnc(-c3ccccc3C)o2)c1	inconclusive: 13 µM [activator, partial curve]	
CC(OC(=O)Cn1cnc2ccccc2c1=O)C(=O)NCc1ccccc1 (centres undefined)		inactive: 7.38%
CC(C)c1ccc(/C=C2\NC(=S)N(Cc3cccnc3)C2=O)cc1		inactive: -10.1%
CC(=O)c1cccc(NC(=S)NC(=O)c2ccc(Br)cc2)c1	inconclusive: 14.6 µM [activator, partial curve]	
Cc1ccc(C(=O)NCC(=O)OCCOc2ccccc2Cl)cc1	inconclusive: 25.9 µM [activator, single point]	
COc1ccc2sc(NC(=O)CC(C)C)nc2c1	inconclusive: 3.66 µM [activator, partial curve]	
O=C(c1cccnc1)C1Cc2ccccc2C1=O (centres undefined)	inconclusive: 29.1 µM [inhibitor, single point]	
O=C(Cc1ccccc1)NCc1cccnc1		inactive: -5.68%
Cc1c(C(=O)NCC2COc3ccccc3O2)oc2ccc(S(=O)(=O)N(C)C3CCCCC3)cc12 (centres undefined)		inactive: -24.9%
Cc1ccc(-c2nn(-c3ccccc3)cc2/C=N/NC(=O)c2ccc3c(c2)OCO3)cc1	inconclusive: 32.6 µM [inhibitor, partial curve, poor fit]	

SMILES	Potency	activity change, negative = inhibition
CCCCCOc1ccc(/C=C/c2c([N+](=O)[O-])c(=O)n(C)c(=O)n2C)cc1	inconclusive: 29.1 µM [inhibitor, single point]	
Cc1ccc2c(Cl)cc(Cl)c(OCC(=O)Nc3cc(S(=O)(=O)N(C)C)ccc3C)c2n1	inconclusive: 20.6 µM [inhibitor, single point]	
CC(C)NC(=O)c1ccc(OC2CSC2)cc1	inconclusive: 23.1 µM [activator, partial curve, poor fit]	
CCn1c(SCc2nc3ccccc3c(=O)[nH]2)nnc1-c1ccncc1		inactive: 2.21%
CCn1c(CSc2n[nH]c(N)n2)nc2cc(C(=O)O)ccc21	inconclusive: 25.9 µM [activator, partial curve, poor fit]	
Cc1ccccc1-c1nnc(Cc2ccccc2)o1	inconclusive: 11.6 µM [activator, partial curve]	
O=Nc1ccc(O)c2ncccc12	inconclusive: 32.6 µM [inhibitor, single point]	
N#C/C(=C\c1ccccc1)C(=O)N(c1ccccn1)C1CCCCC1		inactive: 16.3%
Nc1ccc(N=Nc2ccccc2)c2ccccc12		inactive: 15.1%
CCCc1nc2ccccc2c(C(=O)OCC(=O)NC2CC2)c1CC	inconclusive: 23.1 µM [inhibitor, single point]	
C(#Cc1ccc2c(c1)COc1c3ccccc3nn1-2)c1ccccc1	inconclusive: 8.91 µM [activator, partial curve]	
CCCCSCCCNC(=O)c1cn(CC)c2ccc(S(=O)(=O)N3CCOCC3)cc2c1=O	inconclusive: 11.6 µM [inhibitor, partial curve, poor fit]	
Cc1ccccc1-c1nnc(CS(=O)(=O)c2ccccc2)o1	inconclusive: 4.11 µM [activator, partial curve]	
Cc1ccc(S(=O)(=O)N(Cc2ccc(Cl)cc2)c2ccccc2C(=O)NCc2cccnc2)cc1	inconclusive: 29.1 µM [inhibitor, single point]	
O=S(=O)(c1ccc(OCC(O)CN2CCN(c3ccccc3O)CC2)cc1)N1CCOCC1 (centres undefined)	inconclusive: 14.6 µM [inhibitor, partial curve]	
O=C(N/N=C/c1cccc([N+](=O)[O-])c1O)C(O)(c1ccccc1)c1ccccc1		inactive: -6.8%
CC1=CC(c2ccccc2)NC(=S)N1 (centres undefined)		inactive: 7.24%
COCCCNC(=O)Cn1nnc(-c2ccc(NC(=O)c3ccccc3OC)cc2)n1	inconclusive: 2.59 µM [activator, partial curve, poor fit]	
CC(C)(C)c1ccc(-n2ncc3c2CCCC3NC(=O)CCN2CCCO2)cc1 (centres undefined)		inactive: -0.417%
COc1ccc(Cc2cc(NCc3ccccc3)c3ncn(C(C)C)c3c2)cc1	inconclusive: 0.231 µM [inhibitor, single point]	
COC(=O)c1cc(S(=O)(=O)NCC2CCN(Cc3cccc(Cl)c3)CC2)c[nH]1		inactive: 2.84%
COC(=O)Cn1c(=NC(=O)c2cccc(OC)c2)sc2cc(OC)ccc21	inconclusive: 29.1 µM [inhibitor, single point]	
C=CCOC(=O)C1=C[C@@H](c2ccc(Br)cc2)[C@H](CCCO)[C@@H](OCC)O1		inactive: 9.86%

SMILES	Potency	activity change, negative = inhibition
Cn1c(=O)c2c(ncn2CC(=O)OCCCC(=O)c2ccc(Br)cc2)n(C)c1=O	inconclusive: 0.73 µM [inhibitor, full curve]	
O=C(O)CC(Cc1ccc(Cl)cc1)C(=O)Nc1cc(Cl)ccc1Cl (centres undefined)		inactive: 15.8%
CCCCc1ccc(NC(=O)CSc2nc(=O)n(CCN(CC)CC)c3c2CCC3)cc1		inactive: -17.2%
CCN(CC)c1ccc(C2CC(=O)Nc3cc(OC)c(OC)cc32)cc1 (centres undefined)	inconclusive: 1.03 µM [inhibitor, single point]	
O=C(CSc1n[nH]c(=O)n1C1CC1)c1ccc(F)cc1	inconclusive: 18.3 µM [activator, single point]	
COc1ccccc1OCCNC(=O)C1CC(=O)N(c2cccc(SC)c2)C1 (centres undefined)		inactive: 4.96%
OCc1nc2ccccc2n1CCCOc1ccccc1	inconclusive: 18.4 µM [activator, partial curve]	
O=C1C2C3C=CC(CC3)C2C(=O)N1c1ccc(Cl)cc1 (centres undefined)		inactive: -7.19%
COc1cccc(C=Nc2cccnc2)c1O		inactive: -6.85%
CCCCNS(=O)(=O)c1ccc2nc(-c3cccnc3)cc(C(=O)NC3CCCC3)c2c1		inactive: 0%
COc1ccc(N(CCC#N)C(=O)/C(C#N)=C/c2cccs2)cc1		inactive: 3.97%
COc1cccc(C(=O)Nc2ccc(F)cc2F)c1	inconclusive: 20.6 µM [activator, partial curve]	
O=c1cc(-c2ccccc2Cl)oc2c(NS(=O)(=O)c3ccccc3OC(F)(F)F)ccc(O)c12	inconclusive: 29.1 µM [inhibitor, single point]	
CCOC(=O)c1sc(NC(=O)Nc2cccc(Cl)c2)cc1C	inconclusive: 2.31 µM [activator, partial curve]	
N#Cc1c(NC(=O)CSc2nnnn2C2CCCC2)sc2c1CCCC2	inconclusive: 29.1 µM [inhibitor, partial curve, poor fit]	
Cc1ccc(/C=C/C(=O)N2CCc3ccccc32)o1	inconclusive: 7.31 µM [activator, partial curve]	
O=S(=O)(c1ccc(N2CCN(Cc3ccc4c(c3)OCO4)CC2)nc1)N1CCOCC1	inconclusive: 20.6 µM [inhibitor, single point]	
CCCc1c(C)nc(N2CCN(c3cccc(OC)c3)CC2)[nH]c1=O	inconclusive: 20.6 µM [inhibitor, partial curve, poor fit]	
O=C(C1CCCCC1)N1CCCC(c2nc(-c3ccc(F)cc3)no2)C1 (centres undefined)		inactive: 0%
COc1cccc(NC(=O)CN(C)C(=O)c2cn(-c3ccccc3)nc2-c2cccnc2)c1	inconclusive: 29.1 µM [inhibitor, single point]	
CC(=O)Nc1ccc(NC(=O)Nc2cccc(Cl)c2)cc1	inconclusive: 18.3 µM [activator, single point]	
CCn1c(O)c(/C=C2\C=Nc3ccccc32)sc1=O	inconclusive: 8.2 µM [activator, partial curve]	
c1ccc2[nH]c(CN3CCN(c4ncnc5c4oc4ccccc45)CC3)nc2c1	inconclusive: 18.4 µM [inhibitor, partial curve]	

Quoted from the listing for reference:
SMILES	Potency	activity change, negative = inhibition
Cn1c(=O)c2c(ncn2CC(=O)OCCCC(=O)c2ccc(Br)cc2)n(C)c1=O	inconclusive: 0.73 µM [inhibitor, full curve]	
O=C(O)CC(Cc1ccc(Cl)cc1)C(=O)Nc1cc(Cl)ccc1Cl (centres undefined)		inactive: 15.8%
CCCCc1ccc(NC(=O)CSc2nc(=O)n(CCN(CC)CC)c3c2CCC3)cc1		inactive: -17.2%
CCN(CC)c1ccc(C2CC(=O)Nc3cc(OC)c(OC)cc32)cc1 (centres undefined)	inconclusive: 1.03 µM [inhibitor, single point]	
